From article PMC7450096, “Structural mechanism for replication origin binding and remodeling by a metazoan origin recognition complex and its co-loader Cdc6” (Nature Communications, 2020)
No constants are given. Whether binding was seen depends on the method and setting. Some results given as binding are weak or reduced against the parent protein; the word gives no strength. For some of these results: Where a sequence is shown, tags or fusion partners need not be part of it. Values belong to the binder of their own block, whether it stands above or below them.

Experiments:
[1] = biological target: T1, Drosophila Mcm4, N-terminally MBP-tagged (Drosophila) (UniProt Q26454); test: co-purification (nickel affinity, amylose, gel filtration); Mcm2–7 subunits co-expressed in Hi5 cells; 6xHis-Mcm7 on HisTrap, then MBP-Mcm4 on amylose, TEV cleavage, Superose 6; 4 °C; subunits verified by SDS-PAGE and mass spectrometry
T1 sequence: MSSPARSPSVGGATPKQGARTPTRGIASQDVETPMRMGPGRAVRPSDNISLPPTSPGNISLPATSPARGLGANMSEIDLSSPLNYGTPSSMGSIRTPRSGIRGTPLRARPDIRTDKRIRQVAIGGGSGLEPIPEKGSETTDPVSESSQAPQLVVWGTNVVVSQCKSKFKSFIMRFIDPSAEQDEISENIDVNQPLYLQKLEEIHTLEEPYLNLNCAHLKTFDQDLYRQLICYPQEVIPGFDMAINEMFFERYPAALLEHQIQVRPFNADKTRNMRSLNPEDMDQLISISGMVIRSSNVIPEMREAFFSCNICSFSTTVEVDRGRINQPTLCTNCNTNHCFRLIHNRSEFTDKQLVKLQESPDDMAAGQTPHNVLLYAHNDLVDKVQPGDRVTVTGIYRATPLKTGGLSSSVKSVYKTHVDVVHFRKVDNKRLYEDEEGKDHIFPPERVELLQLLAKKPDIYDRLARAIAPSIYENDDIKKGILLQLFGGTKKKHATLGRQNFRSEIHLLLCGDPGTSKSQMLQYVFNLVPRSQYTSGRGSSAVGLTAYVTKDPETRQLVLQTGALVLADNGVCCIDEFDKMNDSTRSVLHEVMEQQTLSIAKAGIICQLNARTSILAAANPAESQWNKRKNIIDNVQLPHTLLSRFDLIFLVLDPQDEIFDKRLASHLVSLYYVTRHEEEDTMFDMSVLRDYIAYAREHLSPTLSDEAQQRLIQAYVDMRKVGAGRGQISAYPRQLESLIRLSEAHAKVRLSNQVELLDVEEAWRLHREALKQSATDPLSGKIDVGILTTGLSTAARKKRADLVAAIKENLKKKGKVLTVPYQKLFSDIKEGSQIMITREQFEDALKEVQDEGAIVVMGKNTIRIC

[2] = biological target: T2, Drosophila Mcm7, N-terminally 6xHis-tagged (Drosophila) (UniProt Q9XYU0); test: as above
T2 sequence: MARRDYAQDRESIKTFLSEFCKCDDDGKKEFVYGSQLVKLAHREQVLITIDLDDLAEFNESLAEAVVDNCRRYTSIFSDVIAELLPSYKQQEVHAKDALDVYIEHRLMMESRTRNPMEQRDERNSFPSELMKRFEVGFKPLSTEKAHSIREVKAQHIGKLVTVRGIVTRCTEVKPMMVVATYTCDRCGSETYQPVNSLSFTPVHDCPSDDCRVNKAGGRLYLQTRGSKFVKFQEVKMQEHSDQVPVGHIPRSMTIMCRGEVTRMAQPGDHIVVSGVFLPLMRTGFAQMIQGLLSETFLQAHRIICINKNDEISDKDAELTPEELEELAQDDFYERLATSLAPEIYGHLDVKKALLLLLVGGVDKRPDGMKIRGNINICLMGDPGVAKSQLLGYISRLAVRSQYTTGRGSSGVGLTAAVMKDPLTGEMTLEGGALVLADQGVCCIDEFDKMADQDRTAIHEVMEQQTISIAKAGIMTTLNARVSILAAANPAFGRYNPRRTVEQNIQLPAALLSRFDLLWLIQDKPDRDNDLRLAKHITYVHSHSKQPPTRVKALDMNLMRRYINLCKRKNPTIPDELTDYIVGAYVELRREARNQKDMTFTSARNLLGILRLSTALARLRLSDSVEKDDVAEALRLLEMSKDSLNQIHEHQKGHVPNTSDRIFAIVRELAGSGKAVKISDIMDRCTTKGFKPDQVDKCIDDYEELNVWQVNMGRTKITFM

[3] = biological target: T3, Drosophila Orc4, subunit of DmORC^Orc1ΔN (Drosophila) (UniProt Q9W102); test: cryo-EM structure; DmORC^Orc1ΔN (2.5 μM), duplex DNA (3 μM; 60 bp AT-rich, 84 bp AT-rich, 60 bp poly(dA·dT) or 60 bp GC-rich) and DmCdc6ΔN (6.8 μM) assembled at 25 °C in 25 mM HEPES-KOH pH 7.6, 250 mM potassium acetate, 10 mM magnesium acetate, 1 mM DTT, 1 mM ATP; purified by gel filtration; both purified
T3 sequence: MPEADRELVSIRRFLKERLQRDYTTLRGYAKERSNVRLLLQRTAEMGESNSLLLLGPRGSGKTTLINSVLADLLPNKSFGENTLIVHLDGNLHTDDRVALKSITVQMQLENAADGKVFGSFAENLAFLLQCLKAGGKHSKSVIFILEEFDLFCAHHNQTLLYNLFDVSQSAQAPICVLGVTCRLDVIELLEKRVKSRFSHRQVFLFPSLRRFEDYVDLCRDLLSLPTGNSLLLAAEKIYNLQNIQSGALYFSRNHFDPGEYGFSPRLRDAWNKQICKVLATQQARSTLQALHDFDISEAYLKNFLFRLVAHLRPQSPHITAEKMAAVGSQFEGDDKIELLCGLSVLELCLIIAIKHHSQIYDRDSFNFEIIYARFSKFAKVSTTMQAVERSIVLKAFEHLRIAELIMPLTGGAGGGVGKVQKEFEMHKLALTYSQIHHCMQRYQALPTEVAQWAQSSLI

binding [1]: binds
B1: Drosophila Mcm3 (protein, UniProt Q9XYU1 1-819)
chain: MAHEGEQFIKDIQREYVDFLDDEEDQGIYAGHVKDMIAEKSKRLIVNVNDLKRKNPQRALGLLSNAADEQLAFGRALKEYASTVDPGYAKMHEDLFVGFEGCFGNRHVTPRSLTSIYLGNMVCVEGIVTKVSLIRPKVVRSVHYCPNTRKVMERKYTDLTSFEAVPSGAAYPTKDEDGNLLETEYGLSVYKDHQTLTIQEMPEKAPAGQLPRSVDIVCDDDLVDRCKPGDRVQIVGSYRCLPGKRGGYTSGTFRTVLLANNISLLSKESNLDISREDIMLCKKLAKNNDIFELLSKSLAPSIHGHAYVKQAILCLLLGGVEKILPNGTRLRGDINVLLIGDPSVAKSQLLRYVLNTAPRAIPTTGRGSSGVGLTAAVTTDQETGERRLEAGAMVLADRGVVCIDEFDKMSDIDRTAIHEVMEQGRVTISKAGIHASLNARCSVLAAANPVYGRYDQYKTPMENIGLQDSLLSRFDLLFVMLDVIDSDVDQMISDHVVRMHRYRNPKEADGEPLSMGSSYADSLSFVSSSEEKKDTEVYEKYDALLHGKSRQRHEKILSVEFMRKYIHIAKCMKPKLGEQACEAIANEYSRLRSQEAVETDVARTQPITARTLETLIRLSTAHARARMSKSVTIDDAHAAIELVQFAYFKKVLDKDRPSKRRRNSGSDAEDDNGEASSQRSPSRRSKRTRTATVGADSDEEDIEPPQPDAGDLTRRETRRSLPARSVAMLMASPSSEEQSVATSTTEPAIISDARLGEFKNNLQRLFREAREQSLALARITTAINVGSQEPFTAGEIEAAVHRMTEDNQIMVADDIVFLI

binding [2]: binds
B2: Drosophila Mcm6 (protein, UniProt Q9V461 1-817)
chain: MDVADAQVGQLRVKDEVGIRAQKLFQDFLEEFKEDGEIKYTRPAASLESPDRCTLEVSFEDVEKYDQNLATAIIEEYYHIYPFLCQSVSNYVKDRIGLKTQKDCYVAFTEVPTRHKVRDLTTSKIGTLIRISGQVVRTHPVHPELVSGVFMCLDCQTEIRNVEQQFKFTNPTICRNPVCSNRKRFMLDVEKSLFLDFQKIRIQETQAELPRGCIPRAVEIILRSELVETVQAGDRYDFTGTLIVVPDVSVLAGVGTRAENSSRHKPGEGMDGVTGLKALGMRELNYRMAFLACSVQATTARFGGTDLPMSEVTAEDMKKQMTDAEWHKIYEMSKDRNLYQNLISSLFPSIYGNDEVKRGILLQQFGGVAKTTTEKTSLRGDINVCIVGDPSTAKSQFLKQVSDFSPRAIYTSGKASSAAGLTAAVVRDEESFDFVIEAGALMLADNGICCIDEFDKMDQRDQVAIHEAMEQQTISIARAGVRATLNARTSILAAANPINGRYDRSKSLQQNIQLSAPIMSRFDLFFILVDECNEVVDYAIARKIVDLHSNIEESVERAYTREEVLRYVTFARQFKPVISQEAGHMLVENYGHLRQRDTGTSGRSTWRITVRQLESMIRLSEAMAKLECSNRVLERHVKEAFRLLNKSIIRVEQPDIHLDDDEGLDMDDGIQHDIDMENNGAAANVDENNGMDTSASGAVQKKKFTLSFEDYKNLSTMLVLHMRAEEARCEVEGNDTGIKRSNVVTWYLEQVADQIESEDELISRKNLIEKLIDRLIYHDQVIIPLKTSTLKPRIQVQKDFVEEDDPLLVVHPNYVVE

binding [3]: binds
B3: Drosophila Orc1 lacking the N-terminal 439 residues (Orc1ΔN), subunit of DmORC^Orc1ΔN (domain or fragment, UniProt O16810 440-924)
chain: PRRSIHLSNIVEQRVFEDDEIISTPKRGRSKKTVQDNDEDYSPKKSVQKTPTRTRRSSTTTKTATTPSKGITTATATPMTPSQKMKKIRAGELSPSMQQRTDLPAKDSSKSELQLAREQLHVSVVPKSLPCREREFENIYAFLEGKIQDQCGGCMYVSGVPGTGKTATVTGVIRTLQRMAKQNELPAFEYLEINGMRLTEPRQAYVQIYKQLTGKTVSWEQAHALLEKRFTTPAPRRVTTVLLVDELDILCNRRQDVVYNLLDWPTKSAAKLVVVTIANTMDLPERLLMGKVTSRLGLTRLTFQPYSHKQLQEIVTARLGGSETFKGEAVQLVARKVAAVSGDARRALDICRRATEIADTAAVKCVTMLHVQQALAEMIASAKVQAIRNCSRMEQIFLQAIAAEVTRTGVEETTFMGVYQQVETIAAFMGVTFPPPGRALRLCSKLGAERLIISEHSRNDLFQKILLNVSADDIHYALRVEEMVN

binding [2]: binds
binding [1]: binds
B4: Drosophila Mcm2 (protein, UniProt P49735 1-887)
chain: MDNPSSPPPNTPSDAAERRDLRAAMTSPVGDFEPFENEDEILGDQTVRDEAEEEDGEELFGDNMENDYRPMPELDHYDPALLDDEDDFSEMSQGDRFAAESEMRRRDRAAGIHRDDRDLGFGQSDDEDDVGPRAKRRAGEKAAVGEVEDTEMVESIENLEDTKGHSTKEWVSMLGPRTEIANRFQSFLRTFVDERGAYTYRDRIRRMCEQNMSSFVVSYTDLANKEHVLAYFLPEAPFQMLEIFDKVAKDMVLSIFPTYERVTTEIHVRISELPLIEELRTFRKLHLNQLVRTLGVVTATTGVLPQLSVIKYDCVKCGYVLGPFVQSQNTEIKPGSCPECQSTGPFSINMEQTLYRNYQKITLQESPGRIPAGRIPRSKDVILLADLCDQCKPGDELEVTGIYTNNYDGSLNTDQGFPVFATVIIANHVVVKDSKQVVQSLTDEDIATIQKLSKDPRIVERVVASMAPSIYGHDYIKRALALALFGGESKNPGEKHKVRGDINLLICGDPGTAKSQFLKYTEKVAPRAVFTTGQGASAVGLTAYVRRNPVSREWTLEAGALVLADQGVCLIDEFDKMNDQDRTSIHEAMEQQSISISKAGIVTSLQARCTVIAAANPIGGRYDPSMTFSENVNLSEPILSRFDVLCVVKDEFDPMQDQQLAKFVVHSHMKHHPSEEEQPELEEPQLKTVDEIPQDLLRQYIVYAKENIRPKLTNIDEDKIAKMYAQLRQESFATGSLPITVRHIESVIRMSEAHARMHLRENVMEADVSMAIRMMLESFIEAQKFSVMKKMRSTFQKYLSFQKDHSELLFFILRQLTLDQLAYIRCKDGPGATHVEIMERDLIERAKQLDIVNLKPFYESDLFRTNGFSYDPKRRIILQIVVDGNTA

binding [2]: binds
binding [1]: binds
B5: Drosophila Mcm5 (protein, UniProt Q9VGW6 1-733)
chain: MEGFDDAGVFFSDNFGGDNQQDAQINLQAVKKKYKEFIRTFNEENFFYKYRDTLKRNYLNGRYFLEIEMEDLVGFDETLADKLNKQPTEHLEIFEEAAREVADEITAPRPEHEEHMHDIQILLSSNANPTNIRQLKSDCVSKLVKIAGIIVAASGISAKATRMSIQCLSCSTVIPNLKVNPGLEGYALPRKCNTEQAGRPKCPLDPFFIMPDKCKCVDFQTLKLQELPDFVPQGEIPRHLQLFCDRSLCERVVPGNRVLIQGIYSIRKVGKPSRRDGREKAVVGVRAPYMRVVGITVDSEGAGAISRYSNITSDEEEHFRRMAASGDIYERLSQSLAPSIFGSRDIKKAITCMLFGGSRKRLPDGLCRRGDINVLLLGDPGTAKSQLLKFVEKVAPIAVYTSGKGSSAAGLTASVMKDPQTRNFVMEGGAMVLADGGVVCIDEFDKMREDDRVAIHEAMEQQTISIAKAGITTTLNSRCSVLAAANSIFGRWDDTKGEENIDFMPTILSRFDMIFIVKDIHDESRDITLAKHIINVHLSSNKSAPSEPAEGEISLSTFKKYIHYCRTHCGPRLSEAAGEKLKSRYVLMRSGAGQQEKASDKRLSIPITVRQLEAVIRISESLAKIRLQPFATDEHVNEALRLFQVSTLDAAMTGSLAGAEGFTTEEDQETLNRIEKQLKRRFAIGSQVSEQNILQDFLRQKYEERTVMKVIHTMIRRGELQHRMQRKMLYRIC
